{"sequences": {"note": "Amino acid sequences for entries named in this document (tags omitted).", "UniProt P09471, whole entry, looked up": "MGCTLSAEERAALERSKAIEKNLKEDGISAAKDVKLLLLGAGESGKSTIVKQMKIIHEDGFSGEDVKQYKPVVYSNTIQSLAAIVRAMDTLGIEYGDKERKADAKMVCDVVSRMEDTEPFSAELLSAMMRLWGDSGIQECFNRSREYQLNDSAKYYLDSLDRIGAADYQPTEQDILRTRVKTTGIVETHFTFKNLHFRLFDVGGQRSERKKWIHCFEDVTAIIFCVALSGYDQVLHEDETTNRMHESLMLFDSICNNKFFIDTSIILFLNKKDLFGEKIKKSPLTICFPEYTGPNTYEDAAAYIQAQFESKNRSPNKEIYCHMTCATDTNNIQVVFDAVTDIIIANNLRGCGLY"}, "source": "PubChem BioAssay AID1439", "about": "(NMMLSC, 2008)", "note": "Out of some 220,000 compounds screened, about 770 (0.35%) were called active. The inconclusive results got no clear call from the source; some entries with a clear call stand among them for comparison. Cut-off read from the data, not from the text of the source: active = binding response below about 49% or above about 150%; inconclusive = no clear call, values can overlap the other calls; inactive = in between.", "data": [{"target": "Guanine nucleotide-binding protein G(o) subunit alpha (Homo sapiens) (UniProt P09471)", "assay": "RGS7-Galphao binding modulators, primary screen, biochemical, multiplexed bead flow cytometry (AID 1439);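 note: fluorescent Galphao held in activated GDP-AlF4 state binding bead-coupled RGS7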", "details": "at 10 µM, actives lie on both sides", "values": [{"compound": "COc1ccc(-c2nn(-c3ccccc3)cc2C(=O)N2c3ccc(C)cc3C3CN(C)CCC32)cc1", "note": "(stereo unspecified)", "binding response (% of control)": "inconclusive: 96.7%"}, {"compound": "CCn1cc(C(=O)O)c(=O)c2cnc(N3CCN(C(=S)NC(=O)c4ccccc4Cl)CC3)nc21", "binding response (% of control)": "inconclusive: 133%"}, {"compound": "N/C(=N\\OC(=O)c1cccc2ccccc12)c1ccccn1", "binding response (% of control)": "inconclusive: 83%"}, {"compound": "CCNC(=S)Nc1cccc(NC(=O)c2ccccc2O)c1", "binding response (% of control)": "inconclusive: 121%"}, {"compound": "COc1ccccc1C1CCN(Cc2cccc([N+](=O)[O-])c2)CC1", "binding response (% of control)": "inconclusive: 72.6%"}, {"compound": "C=CCNC(=S)N/N=C/c1ccc(C(C)(C)C)cc1", "binding response (% of control)": "inconclusive: 102%"}, {"compound": "N#C/C(=C\\c1ccc(N2CCOCC2)o1)C(=O)Nc1ccc(O)cc1", "binding response (% of control)": "inactive: 102%"}, {"compound": "O=C(CSc1ncccn1)N1CCC(Cc2ccccc2)CC1", "binding response (% of control)": "inconclusive: 95.9%"}, {"compound": "CC(C)C(=O)Nc1c(-c2ccccc2)c(=O)c2ccccc2n1C", "binding response (% of control)": "inconclusive: 126%"}, {"compound": "O=C(CNc1ccccc1)NN=C1CCCC1", "binding response (% of control)": "inactive: 98.9%"}, {"compound": "OCCCNc1ncnc2c1[nH]c1ccccc12", "binding response (% of control)": "inconclusive: 46.8%"}, {"compound": "O=C1OCCC1Sc1nc2ccccc2c(=O)n1-c1ccc(F)cc1", "note": "(stereo unspecified)", "binding response (% of control)": "inconclusive: 90.6%"}, {"compound": "CCC(C)[C@H]1CN=C(N)N1CCc1cc(C(F)(F)F)cc(C(F)(F)F)c1", "note": "(stereo partly specified)", "binding response (% of control)": "inconclusive: 90.8%"}, {"compound": "COCCN(CCOC)C(=O)COC(=O)c1ccc(Cl)c(S(=O)(=O)N(C)c2ccccc2)c1", "binding response (% of control)": "inactive: 101%"}, {"compound": "O=C1Nc2ccccc2/C1=N\\N1CCOCC1", "binding response (% of control)": "inconclusive: 103%"}, {"compound": "CC(=O)Nc1cccc(-n2nnc(SCC(N)=O)n2)c1", "binding response (% of control)": "inconclusive: 115%"}, {"compound": "COc1ccc2c(C)cc(SCC(=O)NCCN3C(=O)CSC3=O)nc2c1", "binding response (% of control)": "inactive: 109%"}, {"compound": "S=c1[nH]ccn1-c1ccc(Cl)cc1", "binding response (% of control)": "inconclusive: 132%"}, {"compound": "CCOC(=O)c1[nH]cnc1C(=O)Nc1ccccc1C", "binding response (% of control)": "inactive: 100%"}, {"compound": "O=C(COc1ncnc2sccc12)Nc1cccc(S(=O)(=O)N2CCCC2)c1", "binding response (% of control)": "inconclusive: 116%"}, {"compound": "Cc1cc([N+](=O)[O-])nn1Cc1ccc(C(=O)N/N=C/c2ccc(F)cc2)cc1", "binding response (% of control)": "inconclusive: 80.8%"}, {"compound": "Cc1cccc(C)c1NC(=O)CN", "binding response (% of control)": "inconclusive: 89.1%"}, {"compound": "CC(/C=C1\\SC(=S)N(c2ccc(C(=O)O)cc2)C1=O)=C\\c1ccccc1", "binding response (% of control)": "inconclusive: 110%"}, {"compound": "Cc1csc(NC(=O)c2cc(=O)[nH]c3ccccc23)n1", "binding response (% of control)": "inconclusive: 74.3%"}, {"compound": "NC(=S)N/N=C1\\CCSc2ccc(Cl)cc21", "binding response (% of control)": "inconclusive: 59.9%"}, {"compound": "CC1=CC(C)(C)N2C(=O)C(=Nc3ccc(O)cc3)c3cccc1c32", "binding response (% of control)": "inconclusive: 68%"}, {"compound": "N#Cc1c(-c2ccccc2)cc(-c2ccccc2)nc1SCC(=O)NCC(=O)O", "binding response (% of control)": "inconclusive: 103%"}, {"compound": "COc1ccc(NC(=O)C2CC(=O)OC2c2ccccc2)cc1", "note": "(stereo unspecified)", "binding response (% of control)": "inactive: 99%"}, {"compound": "CCC(CC)NC(=O)COC(=O)c1cc(SC)ccc1Cl", "binding response (% of control)": "inconclusive: 90.9%"}, {"compound": "CCOC(=O)c1cc(C#N)c(N2CCN(C(=O)c3ccccc3)CC2)nc1C(F)(F)F", "binding response (% of control)": "inconclusive: 141%"}, {"compound": "Cc1ccc(NC(=O)N2CCCC(c3nc(-c4ccc(F)cc4)no3)C2)cc1", "note": "(stereo unspecified)", "binding response (% of control)": "inconclusive: 97.9%"}, {"compound": "O=C(/C=C/Nc1ccc(S(=O)(=O)Nc2ncccn2)cc1)c1cccs1", "binding response (% of control)": "inconclusive: 97.2%"}, {"compound": "O=C(NCCCN1CCN(Cc2ccccc2)CC1)C1CCN(S(=O)(=O)N2CCC3(CC2)OCCO3)CC1", "binding response (% of control)": "inconclusive: 55.4%"}, {"compound": "COc1ccc(C(=O)OCC(=O)Nc2cc(C)on2)c(OC)c1OC", "binding response (% of control)": "inconclusive: 102%"}, {"compound": "O=C1CC(NNC(=O)c2cccc(F)c2)C(=O)N1", "note": "(stereo unspecified)", "binding response (% of control)": "inconclusive: 190%"}, {"compound": "CC(C)(C)OC(=O)NCCCC[C@H](NC(=O)c1nc[nH]c1C(=O)NC1CCN(C(=O)OC(C)(C)C)CC1)C(=O)OC(C)(C)C", "binding response (% of control)": "inconclusive: 79.8%"}, {"compound": "COc1ccc(C(=O)c2ccc(OC)cc2OC)cc1", "binding response (% of control)": "inconclusive: 88.5%"}, {"compound": "O=C1CCCC2=C1C(c1cccs1)n1ncnc1N2", "note": "(stereo unspecified)", "binding response (% of control)": "active: 163% [activator]"}, {"compound": "CN(C)C(=S)Nc1ccc2c(c1)OCCO2", "binding response (% of control)": "inconclusive: 314%"}, {"compound": "COC(=O)c1nc(Cl)c(Cl)c(N)c1Cl", "binding response (% of control)": "inconclusive: 107%"}, {"compound": "COc1ccc(NC(=O)Cn2cc(C#N)c3ccccc32)cc1", "binding response (% of control)": "inconclusive: 71.5%"}, {"compound": "Cn1cc(CCNC(=O)CC2C(=O)NCCN2CC(c2ccccc2)c2ccccc2)cn1", "note": "(stereo unspecified)", "binding response (% of control)": "inconclusive: 105%"}, {"compound": "CC(C)(C)c1ccc(C(=O)Nc2ccc(O)c3c(=O)cc(-c4cccc(Cl)c4)oc23)cc1", "binding response (% of control)": "inconclusive: 75.3%"}, {"compound": "CC(=O)Nc1cccc(/C(C)=N/NC(=O)c2cc(-c3ccncc3)nc3ccccc23)c1", "binding response (% of control)": "inconclusive: -75.2%"}, {"compound": "O=C(NNc1c2ccccc2nc2ccccc12)C(O)c1ccccc1", "note": "(stereo unspecified)", "binding response (% of control)": "inconclusive: 95.6%"}, {"compound": "CCOC(=O)C(C(C)C)C(N)Cc1ccc(F)cc1", "note": "(stereo unspecified)", "binding response (% of control)": "inactive: 99.2%"}]}]}
